Here are results for 79 molecules from publication PMC12040169 (PLOS Biology, 2025).

This is one part of the list.

The subject of the assay is T1, CTL2-GFP (C. trachomatis L2/434/Bu, GFP-expressing).
T1 construct: L2/434/Bu, GFP-expressing
Also on record: species or system HeLa; Intracellular C. trachomatis growth in HeLa cells, bulk GFP fluorescence relative to DMSO. As to conditions: bulk GFP, single well; 28.5 h, 10 µM; inhibitor.
For `COc1ccccc1CCCN1CCC(C(=O)NC(=O)Nc2ccccc2)CC1` [CBK034865], the “% of control remaining” value came to 100%.

Consider `Fc1ccc(CSc2nnnn2-c2ccc3c(c2)OCO3)cc1` [CBK293927], for which the “% of control remaining” value was found to be 139.355%.

`CC(=O)Nc1ccc(S(=O)(=O)/N=C(/Nc2nc(C)cc(C)n2)Nc2ccccc2C)cc1` [CBK264101]: the “% of control remaining” value is listed as 124.937%.

Consider `Clc1ccc(C2NCCS2)c(Cl)c1` (stereo not shown) [CBK027425], for which the “% of control remaining” value was found to be 134.623%.

For `Cc1c(S(=O)(=O)Nc2nnn[nH]2)sc2ccc(Cl)cc12` [CBK062392], the “% of control remaining” value is given as 137.116%.

As for `CC(OC(=O)c1ccc2nccnc2c1)c1cccc([N+](=O)[O-])c1` (stereo not shown) [CBK297901], the “% of control remaining” value was determined as 117.33%.

On to `CCCC[C@H]1CC[C@H](C(=O)Oc2ccc(OC(C)C(=O)O)cc2)CC1` (stereo partly shown) [CBK160854], for which the “% of control remaining” value is 106.722%.

For `CN1CCN(c2ccc(C(=O)N3CCC(F)CC3)cc2)CC1` [CBK200265], the “% of control remaining” value turned out to be 107.206%.

Turning to `COc1ccc(SC(C)C(=O)N2CCN(c3ccc([N+](=O)[O-])nc3)CC2)cc1` (stereo not shown) [CBK298282], the “% of control remaining” value is given as 105.725%.

Consider `COc1ccc(C(NC(=O)C2CC=CCC2C(=O)O)c2ccccc2)cc1` (stereo not shown) [CBK264264], for which the “% of control remaining” value came out at 118.005%.

In the case of `O=S(=O)(CCN1CCC(Cc2ccccc2)CC1)c1ccccc1` [CBK126386], the “% of control remaining” value stood at 119.37%.

For `O=C(CCN1CCn2nc(C(O)C3CC3)cc2C1)NCc1cccs1` (stereo not shown) [CBK306603], the “% of control remaining” value was 108.652%.

Take `CC1=C[C@@H](CNC(=O)c2cccnc2)[C@H](C(C)C)C[C@H]1CC(=O)N1CCOCC1` [CBK289053]: the “% of control remaining” value is 95.8174%.

Consider `CN(C)CCN(Cc1nc2ccccc2[nH]1)Cc1cccs1` [CBK283020], for which the “% of control remaining” value was 132.021%.

For `c1ccc2c(c1)n[n+]1c3ccccc3[n-]n21` [CBK260974], the “% of control remaining” value was 123.023%.

For the molecule `O=C(O)CCSCC(=O)c1ccc(NS(=O)(=O)c2ccccc2)cc1` [CBK300504], the “% of control remaining” value stood at 135.035%.

Consider `O=C1NC2(CCCCC2)C(=O)N1CCS(=O)(=O)Oc1ccc(Br)cc1` [CBK261303], for which the “% of control remaining” value worked out at 100%.

For `c1ccc(CCNc2nc(-c3ccc(N4CCOCC4)cc3)cn3ccnc23)nc1` [CBK037271], the “% of control remaining” value was found to be 211.865%.

Consider `O=C(O)c1cc(/C=C/c2ccc(Br)cc2)nc2ccccc12` [CBK299805], for which the “% of control remaining” value is 128.172%.

Consider `O=C(NC1CC1)[C@H]1O[C@H](CCN2CCN(c3ccccc3)CC2)CC[C@@H]1O` [CBK288717], for which the “% of control remaining” value was 115.331%.

As to `COc1cccc(-c2ccc(C(=O)Nc3ccc4c(c3)OCO4)c(N3CCOCC3)n2)c1` [CBK076509], the “% of control remaining” value is on record as 114.069%.

Take `CC(C)CNc1ncc(-c2ccc(N3CCOCC3)cc2)n2ccnc12` [CBK091273]: the “% of control remaining” value is reported as 159.075%.

For `CCn1ncc(S(=O)(=O)Nc2ccc3c(c2)cc(C)n3C)c1C` [CBK282761], the “% of control remaining” value worked out at 109.371%.

As to `CCc1ccc(C(O)CNC2CCN(CC(F)F)CC2)cc1` (stereo not shown) [CBK304144], the “% of control remaining” value was found to be 112.41%.

Consider `Cc1ccc(NC(=O)c2cnc(SCc3ccc(F)cc3)n(C)c2=O)cc1C` [CBK287674], for which the “% of control remaining” value is listed as 118.087%.

Regarding `Clc1ccc(CN2CCC(Oc3cncc(OCC4COc5ccccc5O4)n3)C2)cc1` (stereo not shown) [CBK084364], the “% of control remaining” value came to 104.235%.

As to `CC(C)c1ccc(NS(=O)(=O)c2csc3ccnc(N4CCNCC4)c23)cc1` [CBK042343C], the “% of control remaining” value is reported as 66.6485%.

Turning to `Fc1ccc(C(c2nnnn2C2CCCCC2)N2CCCCC2)cc1` (stereo not shown) [CBK141670], the “% of control remaining” value came out at 70.1348%.

For `Cn1cccc1C(=O)Nc1cc2ccccc2c(N2CCNCC2)n1` [CBK036347T], the “% of control remaining” value is given as 115.576%.

On to `Cc1cnc(C(=O)N2CCC3(CC2)CC(=O)c2cc(Cl)cc(Cl)c2O3)cn1` [CBK156502], for which the “% of control remaining” value stood at 116.53%.

In the case of `Cc1c(C(=O)O)sc2ncn(CCOc3ccc(Cl)cc3)c(=O)c12` [CBK286808], the “% of control remaining” value is on record as 95.6274%.

On to `COc1cc(Cl)cc(/C=N\NC(=O)C2C(=O)NCC2c2ccccc2)c1O` (stereo not shown) [CBK262825], for which the “% of control remaining” value is 109.975%.

For the molecule `Cc1cc2cc(C(=O)NCC3CCCN(C(C)C)C3)ccc2o1` (stereo not shown) [CBK282625], the “% of control remaining” value is recorded as 90.0264%.

For `Cc1ccc(-c2nccnc2OCCOc2ccccc2)cc1C` [CBK106865], the “% of control remaining” value is given as 100%.

Regarding `Cc1cc(-c2cc(=O)n(Cc3ccccc3)nc2C2CC2)on1` [CBK284365], the “% of control remaining” value was found to be 80.5474%.

Turning to `CC(c1ccc2c(c1)OCO2)c1cc2c(cc1OCCO)OCO2` (stereo not shown) [CBK200110], the “% of control remaining” value came to 70.113%.

In the case of `N#CCCCN1CCN(c2nccnc2OCCN2C(=O)CCC2=O)CC1` [CBK084299], the “% of control remaining” value worked out at 108.93%.

For the molecule `Nc1nnc(SCC(=O)N(Cc2ccccc2F)C2CC2)s1` [CBK295179], the “% of control remaining” value worked out at 174.451%.

`CN1CCC(COC(=O)Nc2ccc3cc[nH]c3c2)CC1` [CBK200130]: the “% of control remaining” value was 131.209%.

On to `Cc1cc(C)c2c3c(sc2n1)C(=O)N(C)CC(=O)N3` [CBK287959], for which the “% of control remaining” value was determined as 141.718%.

Take `O=C(O)c1ccccc1NC1CC(=O)N(C2CCCCC2)C1` (stereo not shown) [CBK286556]: the “% of control remaining” value came out at 116.635%.

On to `Cc1ccc(-c2nn(CCC#N)cc2C(=O)N2CCCC2)cc1C` [CBK305974], for which the “% of control remaining” value is 108.006%.

Take `O=c1c(Cl)nc(Cl)c(C2CCCCC2)n1Cc1ccccc1` [CBK012671]: the “% of control remaining” value came out at 63.1542%.

For the molecule `O=C(NC1CN2CCC1CC2)c1ncoc1-c1ccccc1` (stereo not shown) [CBK283888], the “% of control remaining” value amounted to 96.8737%.

On to `O=[N+]([O-])c1ccc2c(/C=N/c3ccc(-c4nc5ccccc5s4)cc3)c(O)ccc2c1` [CBK261483], for which the “% of control remaining” value was 107.745%.

With `CCOc1ccc(C(=O)NCCC(=O)O)cc1` [CBK261725D], the “% of control remaining” value worked out at 113.557%.

For `O=C(C1CC1)N1CCCC1c1nc(-c2ccc(F)cc2)n[nH]1` (stereo not shown) [CBK283934], the “% of control remaining” value worked out at 82.8533%.

Regarding `Cc1ccc(S(N)(=O)=O)cc1NC(=O)c1ccc(Br)o1` [CBK003693], the “% of control remaining” value turned out to be 125.901%.

In the case of `COc1cc(CNC2CCCCC2)cc(I)c1OCC(N)=O` [CBK269158C], the “% of control remaining” value worked out at 175.006%.

As for `O=C(NC(=S)Nc1cc(-c2nc3ccccc3[nH]2)ccc1Cl)c1ccccc1[N+](=O)[O-]` [CBK268649], the “% of control remaining” value is reported as 127.512%.

In the case of `O=C(Cc1cccs1)Nc1cccc(C(=O)Nc2cccc(C(=O)O)c2)c1` [CBK268509], the “% of control remaining” value turned out to be 121.207%.

Consider `COc1ccc(S(=O)(=O)N2CCN(C(=O)COc3ccc(C)cc3)CC2)cc1` [CBK263354], for which the “% of control remaining” value stood at 100%.

Take `Cc1ccc(N(CC(=O)Nc2ccccc2C(N)=O)S(=O)(=O)c2ccccc2)cc1C` [CBK265246]: the “% of control remaining” value is listed as 94.4909%.

Regarding `COc1ccc(/C=C/C(=O)O)cc1S(=O)(=O)Nc1ccc(C(=O)O)cc1` [CBK261246], the “% of control remaining” value worked out at 100%.

For the molecule `COc1ccc(S(=O)(=O)Nc2c(C(=O)N3CCOCC3)sc3ncccc23)cc1OC` [CBK050005], the “% of control remaining” value amounted to 74.8813%.

For the molecule `COc1cc(C(=O)N2CCN(c3cc(C(C)C)ccc(CO)c3=O)CC2)cc(OC)c1OC` [CBK007673], the “% of control remaining” value is 119.322%.

Take `CCCCc1nccn1CCn1ccnc1CCCC` [CBK020437]: the “% of control remaining” value was determined as 136.389%.

For the molecule `COc1ccc(CCN2C(=O)CC(N3CCN(Cc4ccc5c(c4)OCO5)CC3)C2=O)cc1OC` (stereo not shown) [CBK074555], the “% of control remaining” value was determined as 108.472%.

For `COc1ccc2nc(Nc3nc(=O)cc(CSc4nc5ccccc5s4)[nH]3)nc(C)c2c1` [CBK264854], the “% of control remaining” value is recorded as 112.622%.

In the case of `CCN1CCCC1CNc1c(Cl)c(Cl)nc2c1c(=O)n(C)c(=O)n2C` (stereo not shown) [CBK007287], the “% of control remaining” value stood at 131.008%.

For the molecule `COCC(=O)N1CCC(c2cc(-c3ccc(F)cc3)n[nH]2)C1` (stereo not shown) [CBK284600], the “% of control remaining” value is recorded as 139.76%.

Turning to `CCN(CC)C(=O)C1CCCN(C(=O)NCC2COc3ccccc3O2)C1` (stereo not shown) [CBK156116], the “% of control remaining” value came out at 162.031%.

For `O=C(C1CCC1)N1CCC(c2nc(C3CCCC3)no2)C1` (stereo not shown) [CBK285434], the “% of control remaining” value is on record as 107.642%.

For the molecule `COc1ccc(Sc2nc3cc(Cl)c(Cl)cc3nc2NC(C)C)cc1OC` [CBK093792], the “% of control remaining” value is reported as 107.64%.

For the molecule `O=C(NCC1CCCO1)c1ccc(CNS(=O)(=O)c2cccc(Cl)c2)cc1` (stereo not shown) [CBK267219], the “% of control remaining” value was found to be 144.116%.

On to `O=C(CN1C(=O)C2C3C=CC(C3)C2C1=O)OCC(=O)c1ccccc1` (stereo not shown) [CBK265112], for which the “% of control remaining” value was 138.988%.

On to `CCn1cc(Cl)c(C(=O)Nc2ccsc2C(=O)OC)n1` [CBK058439], for which the “% of control remaining” value is 127.365%.

Regarding `Cn1ccc(C(=O)NC(Cc2ccsc2)c2nccs2)cc1=O` (stereo not shown) [CBK285143], the “% of control remaining” value is recorded as 121.129%.

Take `O=C(O)CCCN1C(=O)/C(=C\c2ccccn2)SC1=S` [CBK264552]: the “% of control remaining” value is 119.875%.

Turning to `O=C(Cc1c[nH]c2ccccc12)N1CCc2ccccc21` [CBK200366], the “% of control remaining” value is listed as 159.32%.

In the case of `COc1cc(Nc2cc(-c3ccc(NC(C)=O)cc3)ncn2)cc(OC)c1OC` [CBK090710], the “% of control remaining” value came to 167.348%.

In the case of `O=C1NC2(CCN(C(=O)Cc3ccc(F)cc3)CC2)Oc2ccc(-c3ccccc3)cc21` [CBK115832], the “% of control remaining” value came to 130.67%.

In the case of `Cc1cccc(NCC2CCN(CC(=O)Nc3cc(C)on3)C2)n1` (stereo not shown) [CBK306118], the “% of control remaining” value worked out at 133.609%.

Turning to `NC(=O)Nc1ccc(C(=O)N2CCN(c3ccccc3)CC2)cc1` [CBK306392], the “% of control remaining” value is 89.8122%.

Consider `O=C(O)c1cccc(S(=O)(=O)Nc2nc3c(Cl)cccc3s2)c1` [CBK161135], for which the “% of control remaining” value is 111.432%.

With `O=C(O)C1CCN(C2C(=O)Nc3ccc(Cl)cc3C2c2ccccc2)CC1` (stereo not shown) [CBK287210], the “% of control remaining” value is 122.124%.

Regarding `CCc1ccccc1C(=O)N1CCCCC1CC` (stereo not shown) [CBK081556], the “% of control remaining” value turned out to be 127.619%.

`O=c1c2cc(Br)cc(F)c2ncn1CCC1CCCO1` (stereo not shown) [CBK306451]: the “% of control remaining” value is on record as 143.449%.

Turning to `Cc1cc(CCCC(=O)N2CCCC(c3ccc(Nc4ncccn4)cn3)C2)ccc1F` (stereo not shown) [CBK286003], the “% of control remaining” value is recorded as 117.692%.
